Columns and labels:
[1] = Separation recovery method I, water phase W1 (Co, Ni sulfates) mixed with kerosine oil phase of the metal extractant
Description: 95.4 g of cobalt (II) sulfate heptahydrate (manufactured by FUJIFILM Wako Pure Chemicals Corporation) and 95.7 g of nickel (II) sulfate heptahydrate (manufactured by FUJIFILM Wako Pure Chemicals Corporation) were added to a 1L measuring flask, were diluted with ultrapure water, and were stirred and dissolved at 30° C. As a result, a metal ion-containing aqueous solution (W1) including two kinds of metal ions was prepared.
(§1) 12 mL of the extractant (Y1) with respect to 10 mL of the prepared metal ion-containing aqueous solution (W1) was added to a 30 mL vial tube, and the mixture was stirred using a stirrer tip at 25° C. for 30 minutes. In this case, the mixing amount (unit: equivalent) of the metal extractant with respect to the total content of metal ions to be coordinated (that have the same definition as the extracted metal ions; in Example 1, Co and Ni) was 0.5. Next, a 10 M sodium hydroxide aqueous solution or a 10 M hydrochloric acid was added to adjust the pH of the mixed solution to a value shown in the column “pH during Mixing” of Table 1-2. Further, the solution was stirred at 25° C. for 30 minutes, and was left to stand at the same temperature for 1 hour. After verifying that the solution was separated into two layers of the organic phase (oil phase) and the water phase, the separated water phase was extracted, and the separation and recovery of the metal ions was performed. The metal ions extracted in Example 1 and the metal ions extracted in the maximum amount are shown in the column “Kind” and the column “Maximum Amount Extracted” of the column “Extracted Metal Ions” in Table 1-2, respectively.
(§2) Separation and recovery of metal ions according to Examples 2 to 4 and 8 and Comparative Examples 1 to 6 and 9 were performed using the same method as that of Example 1, except that the metal ion-containing aqueous solution and the metal extractant solution were changed to a combination shown in Table 1-1 and Table 1-2 (hereinafter, both of which are referred to as Table 1″), the pH during the mixing of the water phase and the oil phase was set to a value shown in the column “pH during Mixing” of Table 1-2, and the mixing amount (unit: equivalent) of the metal extractant with respect to the total content of metal ions to be coordinated was set to a value shown in the column “Mixing Amount” of Table 1-2 for mixing and standing. The metal ions extracted in each of Examples and the metal ions extracted in the maximum amount are shown in the column “Kind” and the column “Maximum Amount Extracted” of the column “Extracted Metal Ions” in Table 1-2, respectively.
(§3) Regarding each of the water phases used in Examples and Comparative Examples and the water phases after the extraction, the pH was measured using a pH meter (SK-620 pH II, manufactured by SATOTECH), and each of the contents of dissolved metal ions was determined using an inductively coupled plasma-optical emission spectrometer (ICP-OES) (Optima 7300 D (trade name), manufactured by Perkin Elmer Co., Ltd.). Measured values of the pH of each of the water phases used in Examples and Comparative Examples and the content of dissolved metal ions in each of the water phases are shown in the column “Water Phase pH” of Table 1-2 and the column “Metal Ion Concentration (ppm)” of Table 1-1. The maximum amount (ppm) of the metal ions extracted measured as described above was divided by the total amount (ppm) of the other metal ions extracted to calculate a ratio between the amounts thereof extracted. The result is shown in the column “Selection Ratio” of Table 1-2.

[2] = Separation recovery method I, water phase W2 (Mn, Co, Ni sulfates) mixed with kerosine oil phase of the metal extractant
Description: (§4) In addition, each of sulfates of a combination of metal ions shown in Table 1-1 was dissolved in ultrapure water to prepare each of metal ion-containing aqueous solutions (W2) and (W3) including two or three kinds of metal ions.
as §1, §2, §3

[3] = Separation recovery method II, water phase W4 (Co, Ni sulfates with lithium chloride) mixed with kerosine oil phase of the metal extractant; conditions: for Extracted Metal Ions Kind / Extracted Metal Ions Maximum Amount Extracted: W4 (Co, Ni, lithium chloride); for Metal Ion Concentration in Water Phase after Extraction (ppm) Co / Metal Ion Concentration in Water Phase after Extraction (ppm) Ni: W4 with lithium chloride, 20,000 ppm Co and Ni before extraction, extractant 310 mM in kerosine, 25° C., pH during mixing 1.5-2.0
Description: 200 g of lithium chloride (manufactured by FUJIFILM Wako Pure Chemical Corporation), 95.4 g of cobalt (II) sulfate heptahydrate (manufactured by FUJIFILM Wako Pure Chemicals Corporation), and 95.7 g of nickel (II) sulfate heptahydrate (manufactured by FUJIFILM Wako Pure Chemicals Corporation) were added to a 1L measuring flask, were diluted with ultrapure water, and were stirred and dissolved at 30° C. As a result, a metal ion-containing aqueous solution (W4) including two kinds of metal ions was prepared. In this aqueous solution, in the two kinds of metal ions (cobalt and nickel), complex ions to which halide ions were coordinated were formed.
12 mL of the extractant (Y3) with respect to 10 mL of the prepared metal ion-containing aqueous solution (W4) was added to a 30 mL vial tube, and the mixture was stirred using a stirrer tip at 25° C. for 30 minutes. In this case, the mixing amount (unit: equivalent) of the metal extractant to the total content of the metal ions was 0.5. Next, a 10 M sodium hydroxide aqueous solution or a 10 M hydrochloric acid was added to adjust the pH of the mixed solution to a value shown in the column “pH during Mixing” of Table 1-2. Further, the solution was stirred at 25° C. for 30 minutes, and was left to stand at the same temperature for 1 hour. After verifying that the solution was separated into two layers of the organic phase (oil phase) and the water phase, the separated water phase was extracted, and the separation and recovery of the metal ions was performed. The metal ions extracted in Example 5 and the metal ions extracted in the maximum amount are shown in the column “Kind” and the column “Maximum Amount Extracted” of the column “Extracted Metal Ions” in Table 1-2, respectively.
The separation and recovery of the metal ions according to Examples 6 and 7 and Comparative Examples 7 and 8 was performed using the same method as that of Example 5, except that the metal ion-containing aqueous solution and the extractant solution were changed to a combination shown in Table 1-2, and the pH during the mixing of the water phase and the oil phase was set to a value shown in the column “pH during Mixing” of Table 1 for mixing and standing. The metal ions extracted in each of Examples and the metal ions extracted in the maximum amount are shown in the column “Kind” and the column “Maximum Amount Extracted” of the column “Extracted Metal Ions” in Table 1-2, respectively.
as §3

[4] = Separation recovery method I, water phase W3 (Zr, Rh sulfates) mixed with kerosine oil phase of the metal extractant
Description: as §4
12 mL of the extractant (Y1) with respect to 10 mL of the prepared metal ion-containing aqueous solution (W1) was added to a 30 mL vial tube, and the mixture was stirred using a stirrer tip at 25° C. for 30 minutes. In this case, the mixing amount (unit: equivalent) of the metal extractant with respect to the total content of metal ions to be coordinated (that have the same definition as the extracted metal ions; in Example 1, Co and Ni) was 0.5. Next, a 10 M sodium hydroxide aqueous solution or a 10 M hydrochloric acid was added to adjust the pH of the mixed solution to a value shown in the column “pH during Mixing” of Table 1-2. Further, the solution was stirred at 25° C. for 30 minutes, and was left to stand at the same temperature for 1 hour. After verifying that the solution was separated into two layers of the organic phase (oil phase) and the water phase, the separated water phase was extracted, and the separation and recovery of the metal ions was performed. The metal ions extracted in Example 1 and the metal ions extracted in the maximum amount are shown in the column “Kind” and the column “Maximum Amount Extracted” of the column “Extracted Metal Ions” in Table 1-2, respectively. […]
Regarding each of the water phases used in Examples and Comparative Examples and the water phases after the extraction, the pH was measured using a pH meter (SK-620 pH II, manufactured by SATOTECH), and each of the contents of dissolved metal ions was determined using an inductively coupled plasma-optical emission spectrometer (ICP-OES) (Optima 7300 D (trade name), manufactured by Perkin Elmer Co., Ltd.). Measured values of the pH of each of the water phases used in Examples and Comparative Examples and the content of dissolved metal ions in each of the water phases are shown in the column “Water Phase pH” of Table 1-2 and the column “Metal Ion Concentration (ppm)” of Table 1-1. The maximum amount (ppm) of the metal ions extracted measured as described above was divided by the total amount (ppm) of the other metal ions extracted to calculate a ratio between the amounts thereof extracted. […]

[5] = W3, 20,000 ppm Zr and Rh before extraction, pH during mixing 4.2, 25° C.

| Molecule | Extracted Metal Ions Kind [1] | Extracted Metal Ions Maximum Amount Extracted [1] | Extracted Metal Ions Kind [2] | Extracted Metal Ions Maximum Amount Extracted [2] | Extracted Metal Ions Kind [3] | Extracted Metal Ions Maximum Amount Extracted [3] | Metal Ion Concentration in Water Phase after Extraction (ppm) Co [3] | Metal Ion Concentration in Water Phase after Extraction (ppm) Ni [3] | also measured |
| --- | --- | --- | --- | --- | --- | --- | --- | --- | --- |
| CCCCC(CC)CN(CCN(CC(CC)CCCC)C(CCCOCCOC)C(=O)O)C(CCCOCCOC)C(=O)O (centres unmarked) [E-6] | Co, Ni | Co |  |  |  |  |  |  |  |
| CCCCC(CC)CN(CC(CC)CCCC)C(=O)CN(CCN(CC(=O)O)CC(=O)N(CC(CC)CCCC)CC(CC)CCCC)CC(=O)O (centres unmarked) [T-1] |  |  | Mn, Co, Ni | Mn |  |  |  |  |  |
| CCCCC(CC)CN(CC(CC)CCCC)CC1CCC(CN(CC(CC)CCCC)CC(CC)CCCC)CC1 (centres unmarked) [E-5] |  |  |  |  | Co, Ni | Co | <1 ppm | 15,000 ppm |  |
| CCCCC(CC)CCC(C(=O)O)N(CCN(CC(CC)CCCC)C(CCC(CC)CCCC)C(=O)O)CC(CC)CCCC (centres unmarked) [E-2] | Co, Ni | Co |  |  |  |  |  |  |  |
| CCCCC(CC)CC(C(=O)O)N(CCN(CC(CC)CCCC)C(CC(CC)CCCC)C(=O)O)CC(CC)CCCC (centres unmarked) [E-1] | Co, Ni | Co | Mn, Co | Mn |  |  |  |  | Extracted Metal Ions Kind ([4]; W3 (Zr, Rh)): Zr, Rh; Extracted Metal Ions Maximum Amount Extracted ([4]; W3 (Zr, Rh)): Zr; Metal Ion Concentration in Water Phase after Extraction (ppm) Rh [4, 5]: 17,000 ppm; Metal Ion Concentration in Water Phase after Extraction (ppm) Zr [4, 5]: <1 ppm |
| CCCCC(CC)CN(CC(CC)CCCC)CC(CC)CCCC (centres unmarked) [Tris-2-EHA, tris(2-ethylhexyl)amine] |  |  |  |  | Co, Ni | Co | 5,000 ppm | 10,000 ppm |  |
| CCCCC(CC)CC(C(=O)O)N(CCC(C)SC)CCN(CCC(C)SC)C(CC(CC)CCCC)C(=O)O (centres unmarked) [T-5] | Co, Ni | Co |  |  |  |  |  |  |  |
| CCCCC(CC)CN(CC(CC)CCCC)C(=O)CNCC(=O)O (centres unmarked) [T-2] |  |  | Mn, Co, Ni | Mn |  |  |  |  |  |
| CCCCCCCCCN(CCCCCCCCC)CCN(CCCCCCCCC)CCCCCCCCC [E-4] |  |  |  |  | Co, Ni | Co | <1 ppm | 14,000 ppm |  |
| CCCCC(CC)CC(OCCOC(CC(CC)CCCC)C(=O)O)C(=O)O (centres unmarked) [T-3] | Co, Ni | Co |  |  |  |  |  |  |  |
| CCCCC(CC)COCCOCC(CC)CCCC (centres unmarked) [T-4] |  |  |  |  | Co, Ni | Co | 17,000 ppm | 18,000 ppm |  |
| CCCCC(CC)CN(CCN(CC(CC)CCCC)CC(CC)CCCC)CC(CC)CCCC (centres unmarked) [E-3] |  |  |  |  | Co, Ni | Co | <1 ppm | 16,000 ppm |  |
| Versatic acid 10 [VA-10] |  |  | Mn, Co, Ni | Mn |  |  |  |  |  |
| CCCCC(CC)COP(=O)(O)CC(CC)CCCC (centres unmarked) [PC-88A, mono-2-ethylhexyl(2-Ethylhexyl)phosphonate] |  |  | Mn, Co, Ni | Mn |  |  |  |  |  |
